# Test results from PubChem BioAssay AID504648 (National Center for Advancing Translational Sciences (NCATS), 2011).
# The campaign covered roughly 390,000 compounds. About 610 (0.16%) were called active. The shares of active, inactive and inconclusive entries below differ from those in the screen. Calls come from the whole dose curve; as a rule, active = well fitted inhibition curve with a large enough effect; inconclusive = small, poorly fitted or top-dose-only effect, or effect the other way, or another doubt; inactive = no such curve, though single readings can be large or run the other way. A potency beside an inconclusive call is a rough fit, not a confirmed value.
# Test: Nrf2 qHTS screen for inhibitors: counterscreen for cytotoxicity
# Conditions: A549 ARE-Fluc cells, CellTiter-Fluor viability, 18-24 h; activity change, negative = cytotoxicity: at 46 µM (top of the series)
# Summary of the method: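 A549 ARE_Fluc cells in 5% FBS OPTI-MEM were exposed to compounds in concentration-response for 18-24 h at 37 deg C. Viability was read by CellTiter-Fluor fluorescence (Ex 405/Em 525) after 30 min, before the luciferase read.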
# % is set by controls: 0 for no effect and ±100 for the full control effect; potency is the fitted concentration of half-maximal effect.
SMILES,Potency,"activity change, negative = cytotoxicity"
CC(=O)C(C(C)=O)c1cc(NS(=O)(=O)c2ccccc2)ccc1NS(=O)(=O)c1ccccc1,"inconclusive: 32.6 µM [falling, partial curve, poor fit]",–
CCCCNCc1cc(Cl)c(OCCC)c(OCC)c1,–,inactive: -3.95%
CN(c1cccc(NC(=O)Nc2cccc(Cl)c2)c1)S(C)(=O)=O,"inconclusive: 11.6 µM [falling, partial curve, poor fit]",–
Oc1cc2c(cc1O)C1c3ccc(O)c(O)c3OCC1(O)C2 (configuration not stated),"inconclusive: 20.6 µM [falling, single point]",–
O=C(COc1ccc(Cl)cc1)N(Cc1ccccc1)c1nc(-c2ccccc2)cs1,–,inactive: -20.9%
CC(CNC(=O)COc1ccccc1)OC(=O)Nc1cccc(Cl)c1 (configuration not stated),–,inactive: -1.17%
N#CCC(=O)N/N=C/c1cn(Cc2ccc(Cl)c(Cl)c2)c2ccccc12,"inconclusive: 23.1 µM [falling, single point]",–
COc1ccc(-c2nnc(SCC(=O)Nc3c(C)cccc3C)nc2-c2ccc(OC)cc2)cc1,–,inactive: -17.7%
C=CC[C@H](CC(=O)N(CCO)Cc1ccccc1)C(=O)N[C@@H](COC(=O)[C@@H](CC=C)CC(=O)OC(C)(C)C)Cc1c[nH]c2ccccc12,"inconclusive: 29.1 µM [falling, single point]",–
CCCCOc1ccccc1C1CC(=O)Nc2cc(C)c(C)cc21 (configuration not stated),"inconclusive: 18.4 µM [falling, partial curve]",–
O=C(NCc1ccco1)c1cccnc1Cl,–,inactive: 0.158%
O=C(Oc1c(Cl)cc(Cl)c2cccnc12)c1cccs1,"inconclusive: 29.1 µM [falling, partial curve, poor fit]",–
O=C(NCCCN1CCN(c2cccc(Cl)c2)CC1)c1ccc2nc(Cc3ccccc3)oc2c1,"inconclusive: 16.4 µM [falling, partial curve, poor fit]",–
O=S(=O)(c1ccc(-c2cnc(C3CC3)o2)cc1)N1CCN(c2ccccc2F)CC1,–,inactive: -5.83%
Cc1ccc(-c2n[nH]c(=S)n2/N=C/C=C\c2ccccc2[N+](=O)[O-])cc1,"inconclusive: 25.9 µM [falling, partial curve, poor fit]",–
Cn1c(=O)c(C#N)c(-c2ccc(F)cc2)c2cc(C(=O)c3cc(Cl)cc(Cl)c3O)cnc21,"inconclusive: 29.1 µM [falling, single point]",–
O=c1[nH]c2cc3c(cc2cc1CN(CCCO)Cc1nnnn1Cc1ccc(F)cc1)OCO3,"inconclusive: 25.9 µM [falling, partial curve, poor fit]",–
CCOc1c(C=C(C#N)C#N)c2ccccc2n1CC,"inconclusive: 18.4 µM [falling, partial curve, poor fit]",–
Cc1ccc(N(CC(O)Cn2c3ccccc3c3ccccc32)S(C)(=O)=O)c(C)c1 (configuration not stated),"inconclusive: 23.1 µM [falling, single point]",–
CCC(=O)Nc1c(S(=O)(=O)c2ccc(C)cc2)c2nc3ccccc3nc2n1C(C)c1ccccc1 (configuration not stated),"inconclusive: 23.1 µM [falling, single point]",–
COC(=O)C1=C(C)NC(=S)NC1c1ccc(-c2cc(Cl)ccc2Cl)o1 (configuration not stated),"inconclusive: 23.1 µM [falling, partial curve, poor fit]",–

SMILES,Potency,"activity change, negative = cytotoxicity"
CC1=C(c2ccc(C)c(C)c2)S(=O)(=O)N(Cc2ccc(C(=O)Nc3cc(F)ccc3F)cc2)C1=O,–,inactive: 0.779%
CC1CCN(C(=O)c2ccc(CNS(=O)(=O)c3ccc(C(C)(C)C)cc3)cc2)CC1,"inconclusive: 20.6 µM [falling, single point]",–
Cc1nc(N2CCN(c3ccccn3)CC2)c2c(C)c(C(=O)N3CCN(c4ccccc4F)CC3)sc2n1,–,inactive: -0.215%
COc1ccccc1C(=O)N/N=C1/NC(=O)CC(C(=O)Nc2ccccc2)S1 (configuration not stated),"inconclusive: 18.4 µM [falling, single point]",–
Cc1nc2ccccc2n1/N=C/c1ccc([N+](=O)[O-])s1,"inconclusive: 18.4 µM [falling, partial curve, poor fit]",–
Cc1ccc([N+](=O)[O-])cc1N(CC(=O)Nc1ccc(S(=O)(=O)Nc2cccc(C(F)(F)F)c2)cc1)S(C)(=O)=O,"inconclusive: 14.6 µM [falling, partial curve]",–
CN1CCN(Cc2nc3ccccc3c(=O)n2Cc2nc(-c3cccc([N+](=O)[O-])c3)cs2)CC1,"inconclusive: 23.1 µM [falling, single point]",–
NS(=O)(=O)c1ccc(N2N=C(c3ccc(Br)cc3)CC2c2ccc(F)cc2)cc1 (configuration not stated),"inconclusive: 29.1 µM [falling, single point]",–
CCCCOC(=O)CSCC(=O)N1N=C(c2cccs2)CC1c1ccc(F)cc1 (configuration not stated),–,inactive: -0.61%
O=C(NN=Cc1ccc(N2CCOCC2)s1)c1ccc([N+](=O)[O-])cc1,"inconclusive: 23.1 µM [falling, single point]",–
CCCOc1ccc(-c2cn3ccccc3n2)cc1[N+](=O)[O-],"inconclusive: 0.58 µM [activator, full curve, poor fit]",–
Cc1cc(C(=O)CSc2nc3ccccc3c(=O)n2C)c(C)n1Cc1ccc2c(c1)OCO2,"inconclusive: 25.9 µM [falling, single point]",–
COc1ccc2c(c1)c1ncn(CCN3CCCCC3)c(=O)c1n2C,–,inactive: -5.04%
C[C@@H]1CN([C@@H](C)CO)C(=O)c2cccc(NC(=O)C3CCCCC3)c2O[C@@H]1CN(C)C(=O)NC1CCCCC1,–,inactive: -5.56%
NC(=O)c1c(NC(=O)CN2CCN(S(=O)(=O)c3ccccc3)CC2)sc2c1CCC2,"inconclusive: 32.6 µM [falling, partial curve, poor fit]",–
COc1ccccc1NS(=O)(=O)c1cc(C(=O)N2CCN(C/C=C/c3ccccc3)CC2)ccc1C,"inconclusive: 16.4 µM [falling, partial curve, poor fit]",–
N#C/C(=C/c1ccc(N2CCCCCC2)o1)c1cccc(F)c1,"inconclusive: 10.3 µM [falling, partial curve]",–
O=C(CN1C(=O)CSc2ccc(S(=O)(=O)N3CCCC3)cc21)NCc1ccccc1Cl,–,inactive: -1.1%
COc1ccc(-c2nnc(NC(=O)c3ccc(S(=O)(=O)N4CCCc5ccccc54)cc3)o2)cc1,"inconclusive: 35.5 µM [falling, single point]",–
Cc1ccccc1C(=O)N1CCN(c2ccc(NC(=O)c3ccco3)cc2Cl)CC1,–,inactive: -10.1%
COc1ccc(C(=O)/C=C/c2cn(CC(O)CN3CCc4ccccc43)c3ccccc23)cc1OC (configuration not stated),"inconclusive: 18.4 µM [falling, single point]",–

# By substructure: the entries above with a tert-butyl group (2)
SMILES,Potency,"activity change, negative = cytotoxicity"
C=CC[C@H](CC(=O)N(CCO)Cc1ccccc1)C(=O)N[C@@H](COC(=O)[C@@H](CC=C)CC(=O)OC(C)(C)C)Cc1c[nH]c2ccccc12,"inconclusive: 29.1 µM [falling, single point]",–
CC1CCN(C(=O)c2ccc(CNS(=O)(=O)c3ccc(C(C)(C)C)cc3)cc2)CC1,"inconclusive: 20.6 µM [falling, single point]",–

# Next records follow:

SMILES,Potency,"activity change, negative = cytotoxicity"
CCC(=O)Nc1ccc2c(c1)C(=O)c1ccccc1C2=O,"inconclusive: 8.2 µM [activator, partial curve, poor fit]",–
O=C(OCc1ccccc1)N(CCCCN(CCCNCc1ccccc1)C(=O)OCc1ccccc1)CCCNCc1ccccc1,"inconclusive: 29.1 µM [falling, single point]",–
CC(=O)c1[nH]c(C)c(C(=O)N2CCCC(Nc3ccc(C(C)C)cc3)C2)c1C (configuration not stated),"inconclusive: 20.6 µM [falling, single point]",–
C=C1C(=O)O[C@@H]2[C@H]1[C@@H](OC(=O)/C(C)=C/C)C/C(C)=C\C(=O)/C=C(\C)[C@@H]2O,"inconclusive: 23.1 µM [falling, single point]",–
C#CCOCCOCCOCCNc1nc(N2CCN(C(=O)CCCCCCCCCCNC(=O)[C@@H](CCSC)n3cc(CCO)nn3)CC2)nc(N2CCN(C(=O)CCCCCCCCCCNC(=O)[C@H](CCCN=C(N)N)n3cc(C[C@@H](C)CC)nn3)CC2)n1,"inconclusive: 18.4 µM [falling, single point]",–
Cc1cc(NC(=O)CSc2nnc(-c3ccccc3)c(-c3ccccc3)n2)no1,"inconclusive: 4.61 µM [falling, partial curve, poor fit]",–
O=c1c(C/C=C/c2ccccc2)c(O)nc2n1CCCS2,"inconclusive: 18.4 µM [activator, partial curve, poor fit]",–
Cc1ccc(-n2ncc3c(NCCCN4CCOCC4)ncnc32)cc1C,–,inactive: 13.7%
Cc1onc(-c2ccccc2)c1C(=O)NNC(=S)NC(=O)/C=C/c1cccs1,"inconclusive: 23.1 µM [falling, single point]",–
COc1ccc2ccccc2c1CNC(C)CCc1ccccc1 (configuration not stated),"inconclusive: 29.1 µM [falling, single point]",–
COc1cccc(/C=C/C(=O)OCC(=O)Nc2nnc(-c3ccccc3)o2)c1,–,inactive: -0.129%
Brc1ccc(N/N=C(/N=Nc2nn[nH]n2)c2ccccc2)cc1,"inconclusive: 18.4 µM [falling, single point]",–
CCOC(=O)c1c(NC(=O)c2cc(-c3ccc(Br)cc3)on2)sc(C(C)=O)c1C,"inconclusive: 0.0041 µM [activator, full curve, poor fit]",–
COc1ccc2oc(C(=O)OCC(=O)N(C)c3ccccc3)c(C)c2c1,–,inactive: 1.28%
CCN(CC(=O)NCc1cccs1)c1ccc(S(=O)(=O)N2CCN(C)CC2)cn1,–,inactive: 4.15%
C(=N\NC1=Nc2cccc3cccc1c23)/c1ccccn1,"inconclusive: 16.4 µM [falling, single point]",–
O=C(Nc1ccc(N2CCCCC2)cc1)c1ccccn1,–,inactive: -2.66%
COc1ccc(NS(=O)(=O)c2ccc3nc(COc4cccc5ccccc45)[nH]c3c2)cc1,"inconclusive: 18.4 µM [falling, single point]",–
CCOC(=O)c1sc(NC(=O)CN2C(=O)NC3(CC(C)CC(C)(C)C3)C2=O)cc1C (configuration not stated),"inconclusive: 14.6 µM [falling, partial curve, poor fit]",–
CCc1cc(SC#N)cc(CC)c1NC(=O)CCl,"inconclusive: 20.6 µM [falling, single point]",–

# Two entries picked at random from the list so far, as already listed:
SMILES,Potency,"activity change, negative = cytotoxicity"
Cc1onc(-c2ccccc2)c1C(=O)NNC(=S)NC(=O)/C=C/c1cccs1,"inconclusive: 23.1 µM [falling, single point]",–
Brc1ccc(N/N=C(/N=Nc2nn[nH]n2)c2ccccc2)cc1,"inconclusive: 18.4 µM [falling, single point]",–
